Measured values: patent publication US20210402016A1, “RADIOLABELED BOMBESIN-DERIVED COMPOUNDS FOR IN VIVO IMAGING OF GASTRIN-RELEASING PEPTIDE RECEPTOR (GRPR) AND TREATMENT OF GRPR-RELATED DISORDERS” (Provincial Health Services Authority, priority 2018, published 2021)
Some results were stated once for a whole list of compounds, not compound by compound.

Test system: PC-3 cells
Experiment: Fluorometric calcium release assay (FLIPR Calcium 6)
Format: cell-based, human
Conditions: 50 nM
Method: Calcium release assays were performed using a FLIPR Calcium 6 assay kit (Molecular Devices) according to published procedures (26). Briefly, 5×10^4 PC-3 cells were seeded overnight in 96-well clear bottom black plates. The growth medium was replaced with loading buffer containing a calcium-sensitive dye and incubated for 30 min at 37° C. The plate was placed in a FlexStation 3 microplate reader (Molecular Devices) and baseline fluorescent signals were acquired for 15 sec. […] The relative fluorescence unit (RFU=Max-Min) was used to determine the agonistic/antagonistic properties.

In the case of `Nc1ncnc2c1ncn2[C@@H]1O[C@H](COP(=O)(O)OP(=O)(O)OP(=O)(O)O)[C@@H](O)[C@H]1O` [ATP, adenosine triphosphate], the Intracellular calcium release is reported as over 500 RFUs.
